Data taken from US4259257A, “1-Phenyl-2-amino-1,3-propanediol-N-aryloxyalkyl derivatives” (Egyt Gyogyszervegyeszeti Gyar, priority 1977, dated 1981).

Tests used:
[1] = test system: coronary insufficiency induced with glanduitrine in male rats (CFY strain); assay: Anti-anginose activity by the method of Nieschulz, coronary insufficiency induced with glanduitrine; assay type: in vivo; settings: inhibition caused by Prenilamine=1
Method: Anti-anginose activity of the compounds according to the invention was tested on male rats from the CFY strain by the method of Nieschulz (Nieschulz, E. et al., Arzneimittelforschung, 5, 680/1955/). The rats weighed about 180 to 220 g. each and were narcotized prior to treatment. Electrocardiograms were registered by means of a NEK-2 ECG-instrument using a standard II output. The coronary insufficiency was induced with a 4 IE/kg. i.v. dose of glanduitrine. Prenilamine was used as a reference compound.
(§1) The acute intravenous toxicity was determined on rats of both sexes, using five animals for each doses. The relative anti-anginose activity was calculated on the basis of the following equation: [formula] Test results are shown in Table 3 below (inhibition caused by Prenilamine=1).

[2] = in vivo; settings: rat, iv, rats, i.v., read-out: LD50-value (acute intravenous toxicity)
Method: as §1

[3] = test system: N. ischiadicus of rats; assay: Local anaesthetic activity by the method of Truant and d'Amato; assay type: in vivo; settings: related to Lidocaine (1.0)
Method: The local anaesthetic activity was tested by the method of Truant and d'Amato (Truant, A. P. and Wiedling, S., Acta Chirurg. Scand. 116, 351/1958) on the N. ischiadicus of rats. The number of the animals showing the signs of characteristic motor-paralysis was recorded. As a control compound Lidocaine was used. This test can be carried out with water-soluble substances only.

SMILES: CCN(CC)CC(=O)Nc1c(C)cccc1C [Lidocaine, reference compound]
- Relative efficiency (relative anti-anginose activity) [1]: 1.4
- LD50 [2]: 34 mg/kg
- Local anaesthetic activity, relative efficiency [3]: 1.0
